Test results reported in PubChem BioAssay AID1117319 (Southern Research Institute, 2015).
Screen size: about 260,000 compounds; about 1,500 (0.58%) were called active. This list was built around the results that the source calls inconclusive (neither active nor inactive); the mix of calls is not that of the screen.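 How the source made its calls: active means inhibition above a set limit at one or more doses, reproduced on every date tested; inconclusive means results disagree between test dates, or hit never tested in dose response; inactive means the rest.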

The chains behind the UniProt entries cited, without tags or fusion partners. Where a name states a change or a piece, a line headed by the entry shows the natural chain unless it says otherwise.
UniProt P69720: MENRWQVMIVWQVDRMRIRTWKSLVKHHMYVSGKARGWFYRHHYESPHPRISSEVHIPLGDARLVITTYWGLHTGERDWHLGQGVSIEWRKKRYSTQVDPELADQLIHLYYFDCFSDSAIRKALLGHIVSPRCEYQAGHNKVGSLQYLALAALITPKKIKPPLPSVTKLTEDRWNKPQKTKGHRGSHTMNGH
UniProt P69721: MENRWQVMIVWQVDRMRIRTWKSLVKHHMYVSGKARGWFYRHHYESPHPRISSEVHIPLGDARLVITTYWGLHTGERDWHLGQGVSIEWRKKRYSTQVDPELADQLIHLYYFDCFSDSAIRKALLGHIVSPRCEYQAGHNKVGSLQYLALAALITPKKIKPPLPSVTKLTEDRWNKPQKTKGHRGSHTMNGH
UniProt P69722: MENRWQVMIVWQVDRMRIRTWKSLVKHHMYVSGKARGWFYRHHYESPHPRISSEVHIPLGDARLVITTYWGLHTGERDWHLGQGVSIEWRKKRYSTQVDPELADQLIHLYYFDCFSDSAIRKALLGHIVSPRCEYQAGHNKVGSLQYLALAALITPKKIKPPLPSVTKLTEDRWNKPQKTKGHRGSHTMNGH
UniProt P69723: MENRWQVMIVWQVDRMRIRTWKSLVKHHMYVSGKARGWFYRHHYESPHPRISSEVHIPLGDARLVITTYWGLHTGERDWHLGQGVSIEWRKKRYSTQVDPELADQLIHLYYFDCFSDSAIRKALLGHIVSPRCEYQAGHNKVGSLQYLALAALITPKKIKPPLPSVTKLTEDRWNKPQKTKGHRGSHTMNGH
UniProt Q9HC16: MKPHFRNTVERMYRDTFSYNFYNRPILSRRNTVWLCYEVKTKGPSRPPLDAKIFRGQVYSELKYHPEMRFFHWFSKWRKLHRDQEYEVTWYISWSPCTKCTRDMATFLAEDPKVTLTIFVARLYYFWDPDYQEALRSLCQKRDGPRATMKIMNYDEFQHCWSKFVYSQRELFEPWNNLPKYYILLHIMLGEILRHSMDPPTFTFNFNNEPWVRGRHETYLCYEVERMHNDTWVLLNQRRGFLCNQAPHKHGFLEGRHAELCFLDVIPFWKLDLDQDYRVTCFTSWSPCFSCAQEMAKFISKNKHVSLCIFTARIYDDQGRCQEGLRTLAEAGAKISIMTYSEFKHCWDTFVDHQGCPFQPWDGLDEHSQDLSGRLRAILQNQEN

Each compound was assayed against Virion infectivity factor (Human immunodeficiency virus type 1 group M subtype B (isolate BH10)) + Virion infectivity factor (Human immunodeficiency virus type 1 group M subtype B (isolate BRU/LAI)) + Virion infectivity factor (Human immunodeficiency virus type 1 group M subtype B (isolate PCV12)) + Virion infectivity factor (Human immunodeficiency virus type 1 group M subtype B (isolate HXB2)) + DNA dC->dU-editing enzyme APOBEC-3G (Homo sapiens) (UniProt P69720+P69721+P69722+P69723+Q9HC16) (assay: inhibitors of Vif binding to APOBEC3G peptide, primary screen, biochemical, TR-FRET, GST-Vif 1-94, biotin-A3G peptide, dose response retest (AID 1117319;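 further: Vif residues 1-94 fused to GST binding biotinylated APOBEC3G peptide 110-148; 0% = full assay without inhibitor and 100% = GST in place of GST-Vif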)). Settings: stronger effect = higher value.

Row | SMILES | inhibition
1 | CCN1C(=O)S/C(=C\c2ccc(N3CCOCC3)cc2C)C1=O | inactive: 15.3%
2 | CCOC(=O)c1cc(-c2cccs2)[nH]n1 | inactive: 3.68%
3 | O=C(O)CCCC(=O)Nc1ccn(-c2ccccc2)n1 | inconclusive: 41.6%
4 | COc1ccc(C(C[N+](=O)[O-])c2c(-c3ccccc3)cc3ccccn23)c(OC)c1 (stereo not given) | inconclusive: 45%
5 | CCOP(=O)(C1=C(O)C(=O)C(C(C)(C)C)=CC1=O)c1ccccc1 (stereo not given) | inconclusive: 40.8%
6 | C/C(CC1CC(C)(C)OC1=O)=N/Nc1nc(-c2ccccc2)cs1 (stereo not given) | inconclusive: 57%
7 | CC1CCN(C(=O)c2ccc(CSc3ccc(Cl)cc3)cc2)CC1 | inconclusive: 37%
8 | CC12CC(c3ccccc3O1)C(/C(N)=N/NC(=O)c1ccc(F)cc1)C(=O)N2 (stereo not given) | inconclusive: 41.6%
9 | Clc1ccccc1/C=C/c1nc(-c2cccnc2)no1 | inconclusive: 39.1%
10 | O=C(CN1CCC(n2nnc3cc(F)ccc32)CC1)NC1CCCCC1 | inconclusive: 59.8%
11 | CC(=O)Nc1ccc(S(=O)(=O)Nc2nccc(C)n2)cc1 | inconclusive: 48.9%
12 | CCOC(=O)CSc1ncnc2c1sc1nc(N3CCOCC3)c3c(c12)CCCC3 | inconclusive: 43.7%
13 | Cc1ccc(/C=N/Nc2ccc(C(=O)O)cc2)o1 | inconclusive: 34.8%
14 | O=C(O)c1cc(S(=O)(=O)Nc2ccc3c(c2)OCCO3)c(Cl)cc1Cl | inconclusive: 59%
15 | CS(=O)(=O)c1ccc(C(=O)OCC(=O)NC(=O)Cc2ccccc2)cc1 | inactive: -0.73%
16 | CN(C)C(=O)c1c2c(nc3ccccc13)-c1ccccc1CC2 | inconclusive: 47.1%
17 | COc1cc(-n2c(C)nc3ncn(-c4ccccc4)c3c2=O)cc(OC)c1OC | inactive: 2.62%
18 | COc1ccc(CC(=O)OCCN(C)C)cc1 | inconclusive: 33.4%
19 | Nc1ccc2c(c1)C/C(=C/c1ccco1)C2=O | inconclusive: 50.9%
20 | O=C(Cn1cnc2ccccc21)N1CCN(S(=O)(=O)c2ccccc2)CC1 | inconclusive: 34.2%
21 | CCOP(=O)(OCC)c1nc(-c2cccc([N+](=O)[O-])c2)oc1N1CCCCC1 | inactive: 5.71%
22 | COc1ccc(OC)c(/C(C)=N/Nc2ccc(C(=O)O)cc2)c1 | inconclusive: 36.1%
23 | [O-][N+]12CC[N+]([O-])(CC1)c1ccccc12 | inconclusive: 36%
24 | O=C1OC(c2ccccc2)C2(CCCC2)C(=O)C12CCCC2 (stereo not given) | inconclusive: 40.8%
25 | O=[N+]([O-])c1c(O)c(Cl)cc(Cl)c1Cl (tested in a mixture with another compound) | inactive: -1.68%

3 entries already listed, sorted by SMILES length, rising:
Row | SMILES | inhibition
7 | CC1CCN(C(=O)c2ccc(CSc3ccc(Cl)cc3)cc2)CC1 | inconclusive: 37%
10 | O=C(CN1CCC(n2nnc3cc(F)ccc32)CC1)NC1CCCCC1 | inconclusive: 59.8%
21 | CCOP(=O)(OCC)c1nc(-c2cccc([N+](=O)[O-])c2)oc1N1CCCCC1 | inactive: 5.71%
